Measurements reported in publication PMC11928714.
No constants are given. Whether binding was seen depends on the method and setting. For some of these results: Binding seen in cells or lysates may run through a third protein. Some results given as binding are weak or reduced against the parent protein; the word gives no strength. Sequences can lack the tags named with a protein.

Key:
[1] = target: T1, OsZHD1 (yeast two-hybrid fusion) (rice (Oryza sativa L., ZH11)) (UniProt Q6YXH5); assay: two-hybrid; full-length OsZHD1 and OsZHD2 in pGBKT7 (BD) and pGADT7 (AD), co-transformed into yeast AH109; selection on SD/-Trp-Leu-His-Ade + X-alpha-gal
T1 sequence: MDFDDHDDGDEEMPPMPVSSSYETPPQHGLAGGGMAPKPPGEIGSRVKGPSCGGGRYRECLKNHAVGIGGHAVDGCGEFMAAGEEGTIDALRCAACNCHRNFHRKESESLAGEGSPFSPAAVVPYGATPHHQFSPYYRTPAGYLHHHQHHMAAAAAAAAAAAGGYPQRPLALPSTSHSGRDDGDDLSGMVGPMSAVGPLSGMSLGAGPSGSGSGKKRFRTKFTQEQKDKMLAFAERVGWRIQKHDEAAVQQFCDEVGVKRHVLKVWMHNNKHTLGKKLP

[2] = target: T2, OsZHD2 (yeast two-hybrid fusion) (rice (Oryza sativa L., ZH11)) (UniProt Q6ZB90); assay: as above
T2 sequence: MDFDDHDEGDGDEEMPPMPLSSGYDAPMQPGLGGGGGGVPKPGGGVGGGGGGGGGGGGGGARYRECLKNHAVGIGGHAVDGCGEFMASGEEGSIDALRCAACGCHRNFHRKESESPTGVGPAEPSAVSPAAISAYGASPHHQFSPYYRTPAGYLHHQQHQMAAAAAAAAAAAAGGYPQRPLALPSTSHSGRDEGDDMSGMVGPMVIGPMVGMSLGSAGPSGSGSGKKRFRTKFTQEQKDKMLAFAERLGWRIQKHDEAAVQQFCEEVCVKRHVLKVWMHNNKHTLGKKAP

[3] = target: T3, OsZHD1-cYFP (rice (Oryza sativa L., ZH11)) (UniProt Q6YXH5); assay: split reporter; BiFC with split YFP; OsZHD1-cYFP and OsZHD2-nYFP co-infiltrated into N. benthamiana leaves; confocal microscopy after 36 to 48 h
T3 sequence: T1 sequence

[4] = target: T4, OsZHD1-GFP fusion protein (rice (Oryza sativa L., ZH11)) (UniProt Q6YXH5); assay: co-IP; OsZHD1-GFP or GFP co-expressed with OsZHD2-Myc in N. benthamiana leaves; enriched on GFP agarose beads at 4 °C, 2 h, washed three times with PBS; immunoblot with GFP and Myc antibodies
T4 sequence: T1 sequence

B1: OsZHD2 (yeast two-hybrid fusion) (protein, UniProt Q6ZB90 1-290)
chain: T2 sequence
B1 was tested, and the binding [1] was “binds”.

B2: OsZHD1 (yeast two-hybrid fusion) (protein, UniProt Q6YXH5 1-279)
chain: T1 sequence
With B2 the binding [2] was “binds”.

B3: OsZHD2-nYFP (protein, UniProt Q6ZB90 1-290)
chain: T2 sequence
With B3 the binding [3] was “binds”.

B4: OsZHD2-Myc fusion protein (protein, UniProt Q6ZB90 1-290)
chain: T2 sequence
With B4 the binding [4] was “binds”.
